# Article PMC10151503
# Sequences of proteins named here, by UniProt entry; tags and fusion partners are left off. A change or cut given only in a name is not applied to a line headed by its entry.
# UniProt P48781, whole entry K31A/E35A: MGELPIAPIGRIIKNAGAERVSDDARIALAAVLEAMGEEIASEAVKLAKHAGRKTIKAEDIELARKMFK
# UniProt P19267: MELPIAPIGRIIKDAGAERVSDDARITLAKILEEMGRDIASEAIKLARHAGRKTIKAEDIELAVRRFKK
# For at least one entry, the source does not settle the construct or the ends of the probe. For part of these data: Weaker means in comparison with the reference protein, sequence or condition of that experiment.
# How the values were obtained:
# [1] = biological target: HMfA K31A E35A (Methanothermus fervidus) (UniProt P48781); test: MST; conditions: affinity too low to be fitted (n.a.); MST: 50 mM Tris-HCl pH 8, 75 mM KCl, 20 nM DNA (40 nM diluted 1:1), 5 min at room temperature (0.2% Tween20 where noted); recombinant protein; label: 5' Cy5 top strand
# [2] = biological target: HMfB (Methanothermus fervidus) (UniProt P19267); test: MST; conditions: 0.2% Tween20, Hill h 1.22 ± 0.15; MST: 50 mM Tris-HCl pH 8, 75 mM KCl, 20 nM DNA (40 nM diluted 1:1), 5 min at room temperature (0.2% Tween20 where noted); recombinant protein; label: 5' Cy5 top strand
Sequence,binding result [1],Kd [2]
CGGCGCAAATTCGTGACCAGTTGCATCAGCTGCGTGAGCTGTTTATCGCAGCATCGTAACAGGATAGTGAAGAAGACT (double strand) [Nonspecific 78 bp],binds more weakly,19.6 µM
GGATCCCTGTCGGCACAGTTGAGCGATCAAAAACGCCGTAGAACGCTTTAATTGATAATCAAAGGCCGCAGAGAGCTC (double strand) [Clone20 78 bp],binds more weakly,
